Measured values reported in patent US20110182877A1, “SUSTAINED DELIVERY OF COMPSTATIN ANALOGS FROM GELS” (POTENTIA PHARMACEUTICALS, INC., priority 2007, published 2011).
Part of at least one peptide drawing is inferred or uncertain, most often the ends.

Test system: complement activation
Test: Complement inhibiting activity of compound extracted from gels removed from rabbit vitreous (FIG. 4)
Assay type: biochemical
Details: gels removed from rabbit vitreous 6 weeks to 8 months following IVT administration; standard assays

CC[C@H](C)[C@H](NC(C)=O)C(=O)N[C@H]1CSSC[C@@H](C(=O)N[C@H](C(N)=O)[C@@H](C)O)NC(=O)[C@H](CCCNC(=N)N)NC(=O)[C@H](Cc2c[nH]cn2)NC(=O)[C@H](C)NC(=O)CNC(=O)[C@H](Cc2c[nH]c3ccccc23)NC(=O)[C@H](CC(=O)O)NC(=O)[C@H](CCC(N)=O)NC(=O)[C@H](Cc2cn(C)c3ccccc23)NC(=O)[C@H](C(C)C)NC1=O [Ac-V4(1-MeW)/H9A, Ac-ICV(1-methyl-W)QDWGAHRCT-CONH2]
Stability and complement inhibiting activity of compound extracted from gels: remained stable and retained substantial complement inhibiting activity
